No constants are given. Whether binding was seen depends on the method and setting. Binding seen in cells or lysates may run through a third protein. A result given as binding can be weak or reduced; the word gives no strength.
Biological target: TRAF2 and NCK interacting kinase (human (endogenous in platelets)) (UniProt Q9UKE5)
Test: co-IP; endogenous TNIK immunoprecipitated (1 ug TNIK antibody, protein A/G beads) from lysates of resting or collagen-stimulated (25 ug/mL, 3 min) human platelets prepared under non-aggregating conditions; 1% NP40 lysis buffer (150 mM NaCl, 10 mM Tris, 5 mM EDTA, pH 7.3); beads washed in 0.5% NP40 buffer; immunoblot of the precipitate

Amino acid sequences for entries named in this document (tags omitted). A change or cut given only in a name is not applied to a line headed by its entry.
UniProt Q9UKE5: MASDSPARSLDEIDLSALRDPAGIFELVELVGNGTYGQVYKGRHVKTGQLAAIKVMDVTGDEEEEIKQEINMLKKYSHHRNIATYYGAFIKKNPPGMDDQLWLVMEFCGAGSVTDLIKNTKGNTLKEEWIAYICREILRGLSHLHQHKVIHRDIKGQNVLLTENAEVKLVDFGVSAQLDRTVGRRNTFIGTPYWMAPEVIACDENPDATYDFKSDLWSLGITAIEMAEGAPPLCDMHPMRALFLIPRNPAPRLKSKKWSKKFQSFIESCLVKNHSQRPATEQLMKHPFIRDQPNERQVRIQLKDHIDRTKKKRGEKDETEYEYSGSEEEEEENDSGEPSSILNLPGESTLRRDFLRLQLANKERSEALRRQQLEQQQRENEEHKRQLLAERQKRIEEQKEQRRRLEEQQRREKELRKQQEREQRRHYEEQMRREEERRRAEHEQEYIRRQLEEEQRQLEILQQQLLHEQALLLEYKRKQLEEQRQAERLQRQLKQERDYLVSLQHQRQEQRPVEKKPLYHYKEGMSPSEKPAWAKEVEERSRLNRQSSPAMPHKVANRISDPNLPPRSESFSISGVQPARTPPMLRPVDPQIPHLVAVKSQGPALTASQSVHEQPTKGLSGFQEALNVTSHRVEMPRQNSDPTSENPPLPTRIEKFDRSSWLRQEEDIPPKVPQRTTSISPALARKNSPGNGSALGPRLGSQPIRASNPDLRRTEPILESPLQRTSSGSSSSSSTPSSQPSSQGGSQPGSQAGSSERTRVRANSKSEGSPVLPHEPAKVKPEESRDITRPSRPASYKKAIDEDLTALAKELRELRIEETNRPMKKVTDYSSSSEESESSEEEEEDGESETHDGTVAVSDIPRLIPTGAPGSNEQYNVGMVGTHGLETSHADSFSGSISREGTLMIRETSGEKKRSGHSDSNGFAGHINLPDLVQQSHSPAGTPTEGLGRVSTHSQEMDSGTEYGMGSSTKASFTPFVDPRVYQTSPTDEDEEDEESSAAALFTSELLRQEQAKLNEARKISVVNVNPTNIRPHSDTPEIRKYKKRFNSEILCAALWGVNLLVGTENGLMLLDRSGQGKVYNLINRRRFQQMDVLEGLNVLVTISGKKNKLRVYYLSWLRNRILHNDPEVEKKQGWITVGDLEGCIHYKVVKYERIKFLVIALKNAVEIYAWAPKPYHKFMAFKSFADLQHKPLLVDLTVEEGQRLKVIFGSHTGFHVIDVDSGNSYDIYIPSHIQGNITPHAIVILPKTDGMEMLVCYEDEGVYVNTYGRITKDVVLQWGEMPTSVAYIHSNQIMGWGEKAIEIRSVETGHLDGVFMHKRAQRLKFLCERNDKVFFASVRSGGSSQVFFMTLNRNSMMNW
UniProt P06396: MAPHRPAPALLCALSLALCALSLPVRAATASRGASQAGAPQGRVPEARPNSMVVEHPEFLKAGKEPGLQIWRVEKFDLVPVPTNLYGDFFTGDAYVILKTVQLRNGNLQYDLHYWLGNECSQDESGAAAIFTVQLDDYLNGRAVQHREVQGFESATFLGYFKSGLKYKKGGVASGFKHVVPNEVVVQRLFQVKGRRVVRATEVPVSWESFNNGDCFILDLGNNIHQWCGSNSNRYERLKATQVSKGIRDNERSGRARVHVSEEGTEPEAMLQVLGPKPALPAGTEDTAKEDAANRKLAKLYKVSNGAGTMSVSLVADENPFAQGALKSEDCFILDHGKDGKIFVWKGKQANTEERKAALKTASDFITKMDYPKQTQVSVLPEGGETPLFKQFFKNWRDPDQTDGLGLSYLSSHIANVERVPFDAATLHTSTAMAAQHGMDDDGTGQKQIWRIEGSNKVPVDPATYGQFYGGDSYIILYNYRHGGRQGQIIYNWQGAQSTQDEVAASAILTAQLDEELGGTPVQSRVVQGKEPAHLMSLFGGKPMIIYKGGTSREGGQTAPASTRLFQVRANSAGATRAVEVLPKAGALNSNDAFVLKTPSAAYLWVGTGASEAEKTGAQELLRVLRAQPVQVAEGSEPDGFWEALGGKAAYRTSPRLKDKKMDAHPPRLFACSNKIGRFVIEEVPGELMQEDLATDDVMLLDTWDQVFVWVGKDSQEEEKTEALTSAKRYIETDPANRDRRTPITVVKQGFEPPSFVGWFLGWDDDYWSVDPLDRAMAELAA

**Q.** How did the binding turn out when gelsolin (from UniProt P06396) was run?
**A.** binds
